Here are results for one molecule from publication PMC10915268 (Parasites, Hosts and Diseases, 2024).

The test system of test [1] is P. falciparum 3D7 (CQ-sensitive strain). The test can be described thus: In vitro antimalarial activity, P. falciparum 3D7. In kind it is cell-based. The conditions noted are these: Plasmodium falciparum, 3D7, read-out: 3D7 IC50.
The subject of test [2] is P. falciparum K1 (CQ-resistant strain). The test can be described thus: In vitro antimalarial activity, P. falciparum K1. It is filed as cell-based. The note with it: Plasmodium falciparum, K1, read-out: K1 IC50.

Consider `CCN(CC)CCCC(C)Nc1ccnc2cc(Cl)ccc12` (centres unmarked) [CQ, Chloroquine], for which the IC50 in test [1] is 22.2 ± 11.2 nM; in test [2], 104 ± 14.9 nM.
